PubChem BioAssay AID743454 | Peter MacCallum Cancer Centre | 2014

Aim: 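Genes whose loss kills vorinostat-resistant colon cancer cells under vorinostat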 (primary screen)
Cells: human HCT116-VR colon cancer cells, selected for vorinostat resistance
Reagent: siRNA pool against human genes, 40 nM siRNA pool
Timing: vorinostat for 24 h, read-out about 72 h after transfection
Treatment: vorinostat at 2.5 µM final
Measured: 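Cell viability by CellTiter-Fluor and caspase 3/7 activity by luminescence, each scaled to mock wells per plate, duplicates averaged, then robust z-scored over all plates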
Reading the numbers: viability robust z-score: higher = more viable cells than screen typical; caspase robust z-score: higher = more caspase 3/7 activity than screen typical
Call rule: 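a knock-down is a hit when classed RV1 or RV2 for lowered viability, or CA1 or CA2 for caspase activation; those lethal without drug were dropped; hits were retested singly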
Here is a random part of about 18,000 reagents tested. Over the whole deposit, 450 (2.5%) got an active call. 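Single biological run; no consistent viability z cut-off exists, so the class columns, not z-scores, define the calls.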

CERS2: viability hit class = no change; caspase hit class = no change; viability robust z-score = 0.88; caspase robust z-score = 1.23; outcome = inactive
GOLPH3L: viability hit class = no change; caspase hit class = no change; viability robust z-score = -0.18; caspase robust z-score = -1.38; outcome = inactive
ERICH6: viability hit class = no change; caspase hit class = no change; viability robust z-score = -0.36; caspase robust z-score = -0.84; outcome = inactive
IL33R: viability hit class = no change; caspase hit class = no change; viability robust z-score = 0.01; caspase robust z-score = 1.46; outcome = inactive
HPX: viability hit class = no change; caspase hit class = no change; viability robust z-score = 0.51; caspase robust z-score = 0.16; outcome = inactive

Next part, starting with the last 2 of the part before.
IL33R: viability hit class = no change; caspase hit class = no change; viability robust z-score = 0.01; caspase robust z-score = 1.46; outcome = inactive
HPX: viability hit class = no change; caspase hit class = no change; viability robust z-score = 0.51; caspase robust z-score = 0.16; outcome = inactive
PRSS1: viability hit class = no change; caspase hit class = no change; viability robust z-score = 0.58; caspase robust z-score = -0.63; outcome = inactive
MGST2: viability hit class = no change; caspase hit class = no change; viability robust z-score = -0.34; caspase robust z-score = 2.04; outcome = inactive
PIWIL4: viability hit class = no change; caspase hit class = no change; viability robust z-score = 0.28; caspase robust z-score = -0.08; outcome = inactive
GPR17: viability hit class = no change; caspase hit class = no change; viability robust z-score = -0.42; caspase robust z-score = -1.24; outcome = inactive
UBXN8: viability hit class = no change; caspase hit class = no change; viability robust z-score = 0.08; caspase robust z-score = 1.12; outcome = inactive
RPL19P9: viability hit class = no change; caspase hit class = no change; viability robust z-score = -4.71; caspase robust z-score = -0.76; outcome = inactive
CCN2: viability hit class = no change; caspase hit class = no change; viability robust z-score = 0.12; caspase robust z-score = 0.03; outcome = inactive
KANK4: viability hit class = no change; caspase hit class = no change; viability robust z-score = 0.29; caspase robust z-score = 0.42; outcome = inactive
MRGPRX4: viability hit class = no change; caspase hit class = no change; viability robust z-score = 0.1; caspase robust z-score = 0.61; outcome = inactive
